Results: publication PMC4006922, “The Human Adenovirus E4-ORF1 Protein Subverts Discs Large 1 to Mediate Membrane Recruitment and Dysregulation of Phosphatidylinositol 3-Kinase” (PLoS Pathogens, 2014)
No constants are given. Whether binding was seen depends on the method and setting. Binding seen in cells or lysates may run through a third protein. These calls come from enrichment with a bait or labelling near it, and not all partners need be listed. Where a sequence is shown, tags or fusion partners need not be part of it.

Chains of the proteins cited; added tags and fusions are not shown.
UniProt Q659C4: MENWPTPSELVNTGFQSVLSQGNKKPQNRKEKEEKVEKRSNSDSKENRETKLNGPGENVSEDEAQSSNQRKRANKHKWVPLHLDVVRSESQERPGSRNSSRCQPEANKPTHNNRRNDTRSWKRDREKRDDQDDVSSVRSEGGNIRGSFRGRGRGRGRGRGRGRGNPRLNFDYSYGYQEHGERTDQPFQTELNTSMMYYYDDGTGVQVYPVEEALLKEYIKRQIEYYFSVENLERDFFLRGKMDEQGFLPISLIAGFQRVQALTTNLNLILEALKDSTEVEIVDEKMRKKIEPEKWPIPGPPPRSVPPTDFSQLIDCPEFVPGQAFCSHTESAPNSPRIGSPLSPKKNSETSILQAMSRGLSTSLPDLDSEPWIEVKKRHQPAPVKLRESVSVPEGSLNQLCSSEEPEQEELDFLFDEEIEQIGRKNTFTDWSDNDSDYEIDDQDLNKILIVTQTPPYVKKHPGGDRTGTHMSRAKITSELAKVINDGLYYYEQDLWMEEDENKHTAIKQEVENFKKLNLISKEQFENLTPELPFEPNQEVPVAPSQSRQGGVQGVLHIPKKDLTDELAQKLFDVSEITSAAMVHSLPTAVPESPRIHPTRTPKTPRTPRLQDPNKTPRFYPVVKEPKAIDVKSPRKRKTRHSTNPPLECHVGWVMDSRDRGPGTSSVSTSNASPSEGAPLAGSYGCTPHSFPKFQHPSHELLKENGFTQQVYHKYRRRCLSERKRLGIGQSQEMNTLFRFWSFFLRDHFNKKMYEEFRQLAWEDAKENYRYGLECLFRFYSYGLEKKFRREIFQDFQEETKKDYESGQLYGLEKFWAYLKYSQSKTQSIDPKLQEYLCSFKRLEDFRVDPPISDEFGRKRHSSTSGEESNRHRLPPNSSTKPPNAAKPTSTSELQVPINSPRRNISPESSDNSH
UniProt Q15717: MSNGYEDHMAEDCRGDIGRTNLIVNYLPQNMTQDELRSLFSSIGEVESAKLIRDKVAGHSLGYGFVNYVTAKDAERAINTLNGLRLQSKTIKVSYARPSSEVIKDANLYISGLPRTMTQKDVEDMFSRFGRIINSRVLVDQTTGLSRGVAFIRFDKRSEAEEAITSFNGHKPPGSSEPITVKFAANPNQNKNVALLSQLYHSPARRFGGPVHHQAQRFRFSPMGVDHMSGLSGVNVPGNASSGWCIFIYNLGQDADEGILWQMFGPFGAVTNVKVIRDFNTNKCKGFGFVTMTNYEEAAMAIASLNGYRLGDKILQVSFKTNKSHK
UniProt Q9HAU5: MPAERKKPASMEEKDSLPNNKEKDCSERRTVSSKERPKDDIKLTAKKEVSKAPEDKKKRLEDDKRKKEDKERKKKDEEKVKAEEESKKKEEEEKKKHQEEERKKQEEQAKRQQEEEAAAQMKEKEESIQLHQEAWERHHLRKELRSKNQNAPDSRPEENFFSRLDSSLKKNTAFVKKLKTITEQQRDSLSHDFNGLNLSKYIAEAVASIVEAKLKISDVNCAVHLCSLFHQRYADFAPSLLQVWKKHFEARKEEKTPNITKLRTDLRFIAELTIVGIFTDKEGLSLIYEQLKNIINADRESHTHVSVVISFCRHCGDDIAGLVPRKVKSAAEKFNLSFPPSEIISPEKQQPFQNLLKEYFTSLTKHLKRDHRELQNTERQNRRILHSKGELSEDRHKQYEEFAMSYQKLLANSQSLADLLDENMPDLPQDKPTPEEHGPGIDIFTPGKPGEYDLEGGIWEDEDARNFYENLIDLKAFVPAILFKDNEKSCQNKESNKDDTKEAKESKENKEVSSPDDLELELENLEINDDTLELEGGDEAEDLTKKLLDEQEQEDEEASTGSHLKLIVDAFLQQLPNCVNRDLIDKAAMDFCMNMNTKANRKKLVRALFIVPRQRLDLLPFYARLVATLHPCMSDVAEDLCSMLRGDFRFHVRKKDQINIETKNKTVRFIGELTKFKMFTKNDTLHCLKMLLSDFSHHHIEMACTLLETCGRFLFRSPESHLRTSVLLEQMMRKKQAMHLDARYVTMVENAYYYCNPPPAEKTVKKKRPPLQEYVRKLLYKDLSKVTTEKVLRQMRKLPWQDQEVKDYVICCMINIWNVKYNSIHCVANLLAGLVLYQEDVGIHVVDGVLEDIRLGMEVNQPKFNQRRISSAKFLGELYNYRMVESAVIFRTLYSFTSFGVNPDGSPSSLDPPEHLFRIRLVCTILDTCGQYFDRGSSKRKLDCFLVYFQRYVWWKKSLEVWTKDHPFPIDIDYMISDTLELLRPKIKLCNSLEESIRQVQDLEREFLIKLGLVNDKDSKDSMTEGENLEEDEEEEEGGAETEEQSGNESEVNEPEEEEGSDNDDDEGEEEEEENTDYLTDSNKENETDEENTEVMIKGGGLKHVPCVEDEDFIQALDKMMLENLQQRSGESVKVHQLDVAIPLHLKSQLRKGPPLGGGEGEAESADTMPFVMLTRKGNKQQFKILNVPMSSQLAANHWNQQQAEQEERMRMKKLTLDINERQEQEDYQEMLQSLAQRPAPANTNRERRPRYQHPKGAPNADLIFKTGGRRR
UniProt P00519: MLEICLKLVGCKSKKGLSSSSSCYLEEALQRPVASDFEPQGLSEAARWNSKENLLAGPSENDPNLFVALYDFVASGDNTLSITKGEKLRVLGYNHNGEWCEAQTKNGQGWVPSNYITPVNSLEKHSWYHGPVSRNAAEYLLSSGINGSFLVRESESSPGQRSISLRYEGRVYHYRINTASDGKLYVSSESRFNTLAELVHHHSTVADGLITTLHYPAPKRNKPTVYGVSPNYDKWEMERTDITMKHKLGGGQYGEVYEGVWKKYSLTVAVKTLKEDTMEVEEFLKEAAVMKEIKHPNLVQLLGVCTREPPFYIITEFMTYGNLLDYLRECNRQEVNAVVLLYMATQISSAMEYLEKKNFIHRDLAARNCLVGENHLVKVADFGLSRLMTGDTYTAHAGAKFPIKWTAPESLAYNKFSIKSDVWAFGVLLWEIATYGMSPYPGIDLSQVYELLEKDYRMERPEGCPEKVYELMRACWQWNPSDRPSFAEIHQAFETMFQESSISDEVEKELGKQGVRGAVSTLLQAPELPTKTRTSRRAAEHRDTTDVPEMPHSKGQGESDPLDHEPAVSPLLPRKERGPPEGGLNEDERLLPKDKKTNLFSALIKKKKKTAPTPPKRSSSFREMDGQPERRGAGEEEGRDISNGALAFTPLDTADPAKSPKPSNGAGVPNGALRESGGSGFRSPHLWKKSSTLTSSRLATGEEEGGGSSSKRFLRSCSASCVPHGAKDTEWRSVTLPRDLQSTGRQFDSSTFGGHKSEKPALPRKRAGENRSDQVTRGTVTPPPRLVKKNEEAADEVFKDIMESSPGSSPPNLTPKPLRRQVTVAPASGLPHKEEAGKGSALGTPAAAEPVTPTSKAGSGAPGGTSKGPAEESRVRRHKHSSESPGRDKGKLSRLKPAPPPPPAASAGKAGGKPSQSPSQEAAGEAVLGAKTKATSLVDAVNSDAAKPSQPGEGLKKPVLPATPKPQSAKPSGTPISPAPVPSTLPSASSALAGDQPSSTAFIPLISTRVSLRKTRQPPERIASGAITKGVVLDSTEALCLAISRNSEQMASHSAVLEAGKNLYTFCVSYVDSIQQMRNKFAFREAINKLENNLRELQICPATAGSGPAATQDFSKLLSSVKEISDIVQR
UniProt Q92841: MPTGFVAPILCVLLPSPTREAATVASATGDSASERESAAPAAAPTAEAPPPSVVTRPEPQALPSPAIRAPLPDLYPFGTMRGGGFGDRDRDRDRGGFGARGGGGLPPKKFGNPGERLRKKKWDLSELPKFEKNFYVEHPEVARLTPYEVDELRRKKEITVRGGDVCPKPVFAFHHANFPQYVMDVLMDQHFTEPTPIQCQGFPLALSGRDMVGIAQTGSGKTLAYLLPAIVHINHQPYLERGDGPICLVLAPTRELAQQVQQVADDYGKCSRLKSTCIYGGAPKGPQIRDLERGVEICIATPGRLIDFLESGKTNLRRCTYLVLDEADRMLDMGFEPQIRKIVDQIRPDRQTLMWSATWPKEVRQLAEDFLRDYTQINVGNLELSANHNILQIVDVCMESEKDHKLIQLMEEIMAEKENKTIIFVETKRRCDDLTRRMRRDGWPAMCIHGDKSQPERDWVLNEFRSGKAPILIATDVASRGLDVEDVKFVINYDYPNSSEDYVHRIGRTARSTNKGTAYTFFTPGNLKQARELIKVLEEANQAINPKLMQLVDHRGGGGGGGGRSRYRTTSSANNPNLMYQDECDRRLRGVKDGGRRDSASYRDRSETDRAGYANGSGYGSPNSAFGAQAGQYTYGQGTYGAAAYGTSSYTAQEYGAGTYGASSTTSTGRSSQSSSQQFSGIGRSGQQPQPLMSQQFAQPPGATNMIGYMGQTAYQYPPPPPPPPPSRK
UniProt O00459: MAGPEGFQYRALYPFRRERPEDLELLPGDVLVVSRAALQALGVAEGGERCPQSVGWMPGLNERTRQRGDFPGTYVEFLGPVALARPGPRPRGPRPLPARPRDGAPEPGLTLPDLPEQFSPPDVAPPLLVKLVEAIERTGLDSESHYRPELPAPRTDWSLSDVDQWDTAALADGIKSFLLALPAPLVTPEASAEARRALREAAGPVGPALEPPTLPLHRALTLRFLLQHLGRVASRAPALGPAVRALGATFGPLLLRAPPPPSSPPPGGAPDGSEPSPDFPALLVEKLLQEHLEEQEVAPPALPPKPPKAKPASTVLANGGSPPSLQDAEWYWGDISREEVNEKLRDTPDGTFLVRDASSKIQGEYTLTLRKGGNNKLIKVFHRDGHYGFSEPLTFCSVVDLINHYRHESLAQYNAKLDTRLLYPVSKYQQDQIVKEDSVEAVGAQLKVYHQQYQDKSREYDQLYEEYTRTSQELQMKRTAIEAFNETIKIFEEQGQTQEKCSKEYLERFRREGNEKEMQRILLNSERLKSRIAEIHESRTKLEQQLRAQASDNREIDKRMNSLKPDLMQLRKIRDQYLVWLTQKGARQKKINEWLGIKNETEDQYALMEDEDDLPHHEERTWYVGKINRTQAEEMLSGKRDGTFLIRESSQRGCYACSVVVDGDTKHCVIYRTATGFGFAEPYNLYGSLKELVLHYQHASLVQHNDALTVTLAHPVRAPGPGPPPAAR
UniProt P27986: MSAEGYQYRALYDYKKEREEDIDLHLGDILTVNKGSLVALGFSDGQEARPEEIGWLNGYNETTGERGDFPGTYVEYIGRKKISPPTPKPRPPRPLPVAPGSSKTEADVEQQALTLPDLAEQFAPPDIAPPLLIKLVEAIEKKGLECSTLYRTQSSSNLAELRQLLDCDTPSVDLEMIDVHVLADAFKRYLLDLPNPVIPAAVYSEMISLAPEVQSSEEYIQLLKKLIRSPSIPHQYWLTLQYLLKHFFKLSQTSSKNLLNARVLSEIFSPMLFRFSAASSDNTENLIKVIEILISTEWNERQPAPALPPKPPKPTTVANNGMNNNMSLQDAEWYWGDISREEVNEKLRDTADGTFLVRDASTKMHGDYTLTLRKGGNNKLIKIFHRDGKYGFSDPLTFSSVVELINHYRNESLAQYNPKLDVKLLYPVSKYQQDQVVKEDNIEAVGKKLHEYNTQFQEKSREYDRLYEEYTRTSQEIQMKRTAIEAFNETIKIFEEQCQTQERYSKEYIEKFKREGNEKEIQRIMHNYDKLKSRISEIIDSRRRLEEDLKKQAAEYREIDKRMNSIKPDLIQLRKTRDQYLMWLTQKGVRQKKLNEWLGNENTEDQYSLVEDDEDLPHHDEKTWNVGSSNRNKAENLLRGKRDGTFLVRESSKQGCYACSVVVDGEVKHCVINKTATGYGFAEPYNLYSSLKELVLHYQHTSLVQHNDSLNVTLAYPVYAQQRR
UniProt O00425: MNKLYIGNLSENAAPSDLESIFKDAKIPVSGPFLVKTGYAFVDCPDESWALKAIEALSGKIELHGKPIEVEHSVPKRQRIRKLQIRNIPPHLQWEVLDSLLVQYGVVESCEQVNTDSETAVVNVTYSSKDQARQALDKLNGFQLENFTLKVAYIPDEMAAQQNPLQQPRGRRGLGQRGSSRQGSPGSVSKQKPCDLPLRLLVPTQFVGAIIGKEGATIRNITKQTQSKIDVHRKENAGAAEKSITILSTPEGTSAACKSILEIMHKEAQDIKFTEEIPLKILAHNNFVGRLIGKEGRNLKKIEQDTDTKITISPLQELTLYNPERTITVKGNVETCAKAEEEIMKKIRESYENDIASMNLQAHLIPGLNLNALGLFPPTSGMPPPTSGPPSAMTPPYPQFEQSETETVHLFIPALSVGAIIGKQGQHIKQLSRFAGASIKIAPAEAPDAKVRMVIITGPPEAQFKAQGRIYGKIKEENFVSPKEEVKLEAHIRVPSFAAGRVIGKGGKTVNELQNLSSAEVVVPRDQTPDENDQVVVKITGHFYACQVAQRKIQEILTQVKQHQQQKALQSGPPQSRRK

biological target: T1, GST-Ad9 E4-ORF1 fusion protein (human adenovirus type 9 (Ad9)) (UniProt P89079); assay: affinity purification with mass spectrometry; GST-E4-ORF1 pulldown from extracts of suspension-cultured HeLa cells; recovered proteins resolved by SDS-PAGE, gel sections digested with trypsin, MALDI-TOF mass spectrometry; only the target purified
T1 sequence: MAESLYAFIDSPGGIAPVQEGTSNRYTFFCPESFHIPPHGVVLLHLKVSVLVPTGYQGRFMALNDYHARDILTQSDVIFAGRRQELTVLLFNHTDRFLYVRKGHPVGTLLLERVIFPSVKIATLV

Substance | binding
LARP2 (from UniProt Q659C4 1-914) | binds
ELAV1 (from UniProt Q15717 1-326) | binds
UPF2 (from UniProt Q9HAU5 1-1272) | binds
Abl1 (from UniProt P00519 1-1130) | binds
DDX17 (from UniProt Q92841 1-729) | binds
PI3K regulatory subunit p85β (endogenous) (from UniProt O00459 1-728) | binds
PI3K regulatory subunit p85α (endogenous) (from UniProt P27986 1-724) | binds
IGF2BP3 (from UniProt O00425 1-579) | binds
